According to paper PMC10006232:
Results are given in words; binding and its absence hold for the method and conditions named. Binding seen in cells or lysates may run through a third protein. These calls come from enrichment with a bait or labelling near it, and not all partners need be listed. Where a sequence is shown, tags or fusion partners need not be part of it.

Chains of the proteins cited; added tags and fusions are not shown.
UniProt P14618: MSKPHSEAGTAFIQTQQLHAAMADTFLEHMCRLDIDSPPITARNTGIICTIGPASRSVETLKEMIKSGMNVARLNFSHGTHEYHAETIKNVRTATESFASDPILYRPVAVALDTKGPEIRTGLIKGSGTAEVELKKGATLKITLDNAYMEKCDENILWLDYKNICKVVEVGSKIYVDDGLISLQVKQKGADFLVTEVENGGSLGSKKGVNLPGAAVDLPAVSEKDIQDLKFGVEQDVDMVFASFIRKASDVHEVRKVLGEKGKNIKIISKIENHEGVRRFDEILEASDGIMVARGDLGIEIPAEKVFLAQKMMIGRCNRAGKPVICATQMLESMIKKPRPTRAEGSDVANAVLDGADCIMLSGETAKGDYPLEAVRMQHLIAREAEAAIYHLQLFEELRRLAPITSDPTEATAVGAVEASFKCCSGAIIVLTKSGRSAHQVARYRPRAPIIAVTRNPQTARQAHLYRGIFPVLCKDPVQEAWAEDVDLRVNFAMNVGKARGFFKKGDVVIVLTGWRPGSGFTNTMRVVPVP

Target: T1, Myc-PHGDH, ectopically expressed in HeLa cells (UniProt O43175)
T1 sequence: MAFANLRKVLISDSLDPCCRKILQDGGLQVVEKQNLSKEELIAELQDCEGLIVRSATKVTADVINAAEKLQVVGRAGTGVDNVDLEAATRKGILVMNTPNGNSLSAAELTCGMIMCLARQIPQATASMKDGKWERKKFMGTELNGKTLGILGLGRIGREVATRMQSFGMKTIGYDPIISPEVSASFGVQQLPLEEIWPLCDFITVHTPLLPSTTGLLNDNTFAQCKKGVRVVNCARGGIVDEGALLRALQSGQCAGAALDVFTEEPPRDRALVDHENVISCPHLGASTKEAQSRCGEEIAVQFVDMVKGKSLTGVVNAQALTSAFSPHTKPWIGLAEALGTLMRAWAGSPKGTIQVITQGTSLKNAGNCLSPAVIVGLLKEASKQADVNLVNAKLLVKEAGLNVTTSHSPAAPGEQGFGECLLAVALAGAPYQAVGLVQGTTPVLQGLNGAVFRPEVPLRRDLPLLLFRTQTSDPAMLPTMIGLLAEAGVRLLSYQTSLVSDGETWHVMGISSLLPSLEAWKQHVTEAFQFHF
Assay: affinity purification with mass spectrometry; Myc-PHGDH and FLAG-PKM2 immunoprecipitated from HeLa cells with anti-Myc and anti-FLAG antibodies as the bait; LC-MS

binding: binds
Substance: pyruvate kinase M2 (PKM2), found with Myc-PHGDH from HeLa cells (from UniProt P14618 1-531)
